# Measurements published in US7531629B2, “Tumor associated antigen peptides and use of same as anti-tumor vaccines” (Yeda Research and Development Co. Ltd., priority 1998, dated 2009).
# Some entries share one result that the patent states for a list of compounds. Some compounds share one range, which may span the group rather than tell each member.
# System: RMA-S-HhD cells
# Test: CTL from peptide-immunized HhD mice against loaded RMA-S-HhD target cells
# Format: in vivo
# Conditions: CTL generated against MUC-1 peptides
# Experimental: Vaccination: Mice were immunized intraperitonealy three times at 7-day intervals, with 2×10^6 irradiated (5,000 rad) tumor cells, or with peptide-loaded RMA-S-HhD-B7.1 transfectants. Peptide loading of RMA-S-HhD-B7.1 cells was performed as follows: After washing the cells 3 times in PBS, the surface expression of HhD monochins was stabilized by a 4 hours culture at 26° C. Synthetic peptides, or peptide extracts were added to 10×10^6 cells in 1 ml of opti-MEM (Gibco) medium to a concentration of 100 μM or 1 mM, respectively. The cells were incubated at 26° C. and for additional 3 hours at 37° C. Peptide loaded RMA-S-HhDσ-σB7.1 cells were irradiated (5000 rad), washed, resuspended in PBS and injected into mice. In mixed synthetic vaccines, RMA-S-HhD-B7.1 cells were loaded separately with each peptide and pooled before vaccination.
# In vitro cytotoxicity assays: Mice were immunized intraperitonealy three times at 7-day intervals, with 2×10^6 irradiated (5,000 rad) tumor cells, or with peptide-loaded RMA-S-HhD-B7.1 transfectants. […] A total of 100 μl of the supernatants was mixed with scintillation fluids and counted in a beta counter. […] Spontaneous release was determined by incubation of 100 μl-labeled target cells with 100 μl of medium. Maximal release was determined by solubilization of target cells in 100 μl 0.1 M NaOH.
# CTL induced in HhD mice recognize the same UP II peptides as human PBL: The immunogenicity of Uroplakin homologue peptides was also evaluated in a mouse model, in which the murine MHC class I genes are not expressed (D^b−/−, β2-microglobulin −/−, double knockout) and which is transgenic for a HLA-A2 and human β2-microglobulin monochain (HhD mice). The advantage of a HLA-A2 transgenic mouse model is that CTL epitopes can be detected more easily and reproducibly, without lengthy and repeated in vitro stimulations. […]
row,Sequence,higher reactivity to tumor extract versus normal tissue extract
1,ALASTAPPV (listed as Homo sapiens) [MUC-1/E6],1.8-9.0 fold
2,LLLTVLTVV (listed as Homo sapiens) [MUC-1/D6],1.8-9.0 fold
3,NLTISDVSV (listed as Homo sapiens) [MUC-1/A7],1.8-9.0 fold
